Measured data: PubChem BioAssay AID1508588 (Peter MacCallum Cancer Centre, 2020)

- Screen: 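Knock-downs boosting vemurafenib effects on melanoma cell growth or lactate release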 (primary screen)
- Cells: human WM266.4 melanoma cells (BRAF V600 mutant)
- Reagent: siRNA pool against human genes, 40 nM
- Timing: 96 h from transfection to read-out
- Conditions: vemurafenib 300 nM (about IC25), added 48 h after transfection, for 48 h; comparison arm got DMSO vehicle only
- Measurement: 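Ratios to non-targeting siRNA for cell gain, counted as DAPI nuclei after minus before drug and averaged over two replicates, and for absorbance-read medium lactate per cell; both binned into fold-change classes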
- Direction: cell gain with vemurafenib: higher = more cell gain than with non-targeting siRNA; lactate per cell with vemurafenib: higher = more lactate made per cell
- Call rule: 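a knock-down counts as enhancing when its fold-change classes with vehicle and with vemurafenib, taken together, show a stronger drug effect on cell gain or lactate per cell; exact class pairs not stated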
- Calls: active = enhances vemurafenib effect; inactive = no enhancement seen
This is one part, drawn at random, of about 18,000 reagents tested. 790 of all reagents (4.4%) count as active. 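Calls rest on a combination of fold-change classes in drug and vehicle arms, not all shown here.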

gene knocked down	cell gain with vemurafenib	lactate per cell with vemurafenib	Outcome
SLC22A1	0.67	0.85	inactive
CEP95	0.61	0.8	inactive
BLOC1S1	0.5	1.16	inactive
ACSM2A	0.36	0.67	inactive
ETS1	0.6	1.15	inactive
PAFAH1B2	0.57	0.7	inactive
KANK4	0.24	1.92	inactive
DTX3	0.98	0.9	inactive
STK33	1.02	0.94	inactive
TLR9	0.26	0.76	inactive
KLK6	0.21	2	inactive
CEP152	1.04	0.84	inactive
CNR1	0.84	1.27	inactive
PREX1	0.89	0.87	inactive
CC2D1A	0.88	0.68	inactive
TFAP2A	0.65	0.6	inactive
SLCO1B1	0.44	0.58	inactive
ZNF654	0.39	0.99	inactive
FAM110A	0.81	0.71	inactive
DOP1B	0.54	0.62	inactive
PTPRJ	0.95	0.64	inactive
SERINC2	0.26	1.27	inactive
SF3B6	-0.05	2.62	inactive
LRGUK	0.31	0.82	inactive
TXNDC17	0.85	1.19	inactive
EIF5B	0.35	0.52	inactive
NDUFB8	0.34	1.5	inactive
TBPL2	0.91	1.44	inactive
DOHH	0.45	1.29	inactive
JADE3	1.07	0.67	inactive
GUCA2A	0.59	0.6	inactive
KLHL12	0.54	0.71	inactive
CD247	0.25	1.33	inactive
CCN3	0.77	0.57	inactive
ZFYVE28	0.86	1.06	inactive
HEXA	0.67	0.66	inactive
KDM8	0.76	0.48	inactive
OR52A1	0.74	1.46	inactive
LYPD5	0.49	2.36	inactive
BNIPL	0.64	0.7	inactive
SGCB	0.6	1.19	inactive
HYLS1	0.41	0.82	inactive
THAP1	0.9	0.61	inactive
OR11G2	0.5	1.85	inactive
GPR152	0.01	1.18	inactive
HAND2	0.46	0.26	inactive
FUT5	0.27	0.73	inactive
WDR48	0.26	1.08	inactive
HLA-DRA	0.77	1.46	inactive
SH2B2	0.38	0.77	inactive
YARS2	0.81	1.85	inactive
DLAT	0.94	0.2	inactive
ZNF136	0.82	0.34	inactive
SNN	0.11	1.99	inactive
NVL	0.13	2.34	inactive
HPCA	1.19	0.62	inactive
TMCC3	0.42	1.85	inactive

Not a retest: entries from further up.
gene knocked down	cell gain with vemurafenib	lactate per cell with vemurafenib	Outcome
YARS2	0.81	1.85	inactive
DLAT	0.94	0.2	inactive
ZNF136	0.82	0.34	inactive
